Laboratory results from patent US4356322A, “Phenoxyalkanolamine derivatives” (Veb Arzneimittelwerk Dresden, priority 1977, dated 1982).
Where a name gives a salt, the structure may show the parent alone. At least one structure is not confirmed: it was looked up by name or label, or the drawing left a doubt.

Tested on: circulation of dogs
Assay: effects on the circulation of dogs under continual intravenous infusion
Format: in vivo, dog
Excerpt: Column 1: Infusion rate in μg/kg/min
Column 2: Cumulative dose in μg/kg
Rate of pressure increase in the left ventricle (dp/dt/max) in mm Hg·s^-1
ED30 =dosage for 30% increase in inotropy, in μg/kg
Max=maximum increase in percent in inotropy at dose μg/kg
Column 4: Cardiac frequency in n·min^-1
ED30 =dosage for 30% increase in frequency, in μg/kg
Max=maximum increase in percent in frequency at dose μg/kg
Column 5: Cardiac output ml·min^-1 ·kg^-1
Column 6: Diastolic blood pressure in mm Hg
Column 7: Number of animals used in the experiments
X=median values (initial value and after cumulative dose)
%=change in percent of initial value
In these experiments, the compounds were used in the form of hydrochlorides.

| SMILES | Diastolic blood pressure, median initial value - value after cumulative dose (dog, 0,25 μg/kg/min, cumulative 15,0 μg/kg) | Diastolic blood pressure, median initial value - value after cumulative dose (dog, 1,00 μg/kg/min, cumulative 10,0 μg/kg) |
| --- | --- | --- |
| Cc1cccc(C)c1NCCNCC(O)COc1ccccc1 (stereo not drawn) [Example 7, 3-[β-(2,6-dimethylphenylamino)-ethyl]-amino-2-hydroxy-1-phenoxypropane hydrochloride] | 114-110 |  |
| O=[N+]([O-])c1cccc(NCCNCC(O)COc2ccccc2)c1 (stereo not drawn) [Example 16, 3-[β-(3-nitrophenylamino)-ethyl]-amino-2-hydroxy-1-phenoxypropane] |  | 103--103 |
